The source of these data is patent EP4682169A1.

By UniProt entry, the sequences of proteins in these tests, tags left out. Where a name states a change or a piece, a line headed by the entry shows the natural chain unless it says otherwise. Chains listed by the source or under a name are the forms on record and can include a tag or linker.
Claudin 18.2 VLP (P56856, form named): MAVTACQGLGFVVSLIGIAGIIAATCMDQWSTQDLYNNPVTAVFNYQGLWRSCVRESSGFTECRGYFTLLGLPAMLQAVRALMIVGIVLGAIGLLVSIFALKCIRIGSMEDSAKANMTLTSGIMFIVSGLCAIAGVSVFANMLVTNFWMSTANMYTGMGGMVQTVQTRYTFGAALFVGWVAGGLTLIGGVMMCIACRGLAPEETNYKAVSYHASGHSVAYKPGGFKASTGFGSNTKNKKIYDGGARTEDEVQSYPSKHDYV

In experiment [1] the target is Claudin 18.2 VLP (UniProt P56856). Nature of the experiment: ELISA, Claudin18.2-VLP coated 200 ng/well, anti-mouse IgG Fc detection; ranking by EC50. In general terms: ELISA stands for enzyme-linked immunosorbent assay.
Experiment [2] has the same target. The experiment is described as follows: ELISA, coated antigen.
For experiment [3], the target named is Claudin18.2 recombinant protein (His tag) (UniProt P56856). Nature of the experiment: ELISA, coated antigen.
For experiment [4] the target is unchanged. The experiment is described as follows: ELISA, coated antigen 200 ng/well; antibody 100 ug/mL (so in the source); absorbance at 450 nm above the reader's range.

These are yes or no findings as the source states them, for the method shown. Some binding calls cover weakened binding; strength is not graded here. For part of these data: Where a sequence is shown, tags or fusion partners need not be part of it.

B1: 18-mIgG2aFc (Fc fusion, not shown: a dimerising Fc or GST)
chain: QVQLVESGGGLVQPGGSLRLSCAASGSILNLMTTGWYRQAPGKQRDLVATITFGGTTNYADAVKGRFTISRDNAKNTVYLQMNNLEPEDTAVYFCYLDYIFGFGDRRVAWDQGTQVTVSS
B1: the binding result in the experiment with Claudin 18.2 VLP [1] is recorded as “binds”.

B2: 2-mIgG2aFc (Fc fusion, not shown: a dimerising Fc or GST)
chain: EVQLVESGGGLVQPGGSLRLSCAASGNILSINYMGWYRQAPGKERELVATITRGGSTNYQGNLKGRFIISGDNTKDTVYLQMNNLQPEDTAVYYCYFRINFGILGGLRDYWGQGTQVTVSS
As to B2, the binding result with Claudin 18.2 VLP [1] is recorded as “binds”.

B3: 5-mIgG2aFc (Fc fusion, not shown: a dimerising Fc or GST)
chain: QVQLVESGGGLVQTGGSLRLSCAASDSTFSSYIMGWFRQAPGKEREFVAGITWSGGIKDYADSVKGRFTIARDNAKNTVYLQMNSLKPEDAAIYYCAANAIQLTRRSGDYAYWGQGTQVTVSS
B3: in the experiment with Claudin 18.2 VLP [1], the binding result is given as “binds”.

B4: 5H2-mIgG2a Fc (Fc fusion, not shown: a dimerising Fc or GST)
chain: QVQLVESGGGLVQPGGSLRLSCAASDSTFSSYIMGWFRQAPGKGLEFVAGITWSGGIKDYADSVKGRFTIARDNSKNTLYLQMNSLRAEDAAVYYCAANAIQLTRRSGDYAYWGQGTLVTVSS
In the case of B4, in the experiment with Claudin 18.2 VLP [1], the binding entry was “binds”.

B5: 5H1-mIgG Fc (Fc fusion, not shown: a dimerising Fc or GST)
chain: QVQLVESGGGLVQTGGSLRLSCAASDSTFSSYIMGWVRQAPGKGLEWVAGITWSGGIKDYADSVKGRFTIARDNAKNTVYLQMNSLKPEDAAIYYCAANAIQLTRRSGDYAYWGQGTQVTVSS
On to B5, for which the binding result with Claudin 18.2 VLP [1] is recorded as “binds”.

B6: 5-hIgG1Fc (Fc fusion, not shown: a dimerising Fc or GST)
chain: QVQLVESGGGLVQTGGSLRLSCAASDSTFSSYIMGWFRQAPGKEREFVAGITWSGGIKDYADSVKGRFTIARDNAKNTVYLQMNSLKPEDAAIYYCAANAIQLTRRSGDYAYWGQGTQVTVSS
As for B6, the binding entry (with Claudin 18.2 VLP [2]; in experiment [3]; in experiment [4]) was “binds” throughout.

B7: 8-hIgG1Fc (Fc fusion, not shown: a dimerising Fc or GST)
chain: QVQLVESGGGLVQPGGSLRLSCAASGSIFGLNFMGWWRQAPGSQRELVAIATSGGSIQYGDSVKGRFTISRDNAKNTVYLQMASLKPEDTAVYYCNVHTYDFLGRDYWGQGTQVTVSL
Consider B7, for which the binding entry with Claudin 18.2 VLP [2] was “binds”.
